Assay results from PMC2635097 (Molecular pharmacology, 2008).

The chains behind the UniProt entries cited, without tags or fusion partners. Residues count along the entry.
UniProt Q00959, 23-1464: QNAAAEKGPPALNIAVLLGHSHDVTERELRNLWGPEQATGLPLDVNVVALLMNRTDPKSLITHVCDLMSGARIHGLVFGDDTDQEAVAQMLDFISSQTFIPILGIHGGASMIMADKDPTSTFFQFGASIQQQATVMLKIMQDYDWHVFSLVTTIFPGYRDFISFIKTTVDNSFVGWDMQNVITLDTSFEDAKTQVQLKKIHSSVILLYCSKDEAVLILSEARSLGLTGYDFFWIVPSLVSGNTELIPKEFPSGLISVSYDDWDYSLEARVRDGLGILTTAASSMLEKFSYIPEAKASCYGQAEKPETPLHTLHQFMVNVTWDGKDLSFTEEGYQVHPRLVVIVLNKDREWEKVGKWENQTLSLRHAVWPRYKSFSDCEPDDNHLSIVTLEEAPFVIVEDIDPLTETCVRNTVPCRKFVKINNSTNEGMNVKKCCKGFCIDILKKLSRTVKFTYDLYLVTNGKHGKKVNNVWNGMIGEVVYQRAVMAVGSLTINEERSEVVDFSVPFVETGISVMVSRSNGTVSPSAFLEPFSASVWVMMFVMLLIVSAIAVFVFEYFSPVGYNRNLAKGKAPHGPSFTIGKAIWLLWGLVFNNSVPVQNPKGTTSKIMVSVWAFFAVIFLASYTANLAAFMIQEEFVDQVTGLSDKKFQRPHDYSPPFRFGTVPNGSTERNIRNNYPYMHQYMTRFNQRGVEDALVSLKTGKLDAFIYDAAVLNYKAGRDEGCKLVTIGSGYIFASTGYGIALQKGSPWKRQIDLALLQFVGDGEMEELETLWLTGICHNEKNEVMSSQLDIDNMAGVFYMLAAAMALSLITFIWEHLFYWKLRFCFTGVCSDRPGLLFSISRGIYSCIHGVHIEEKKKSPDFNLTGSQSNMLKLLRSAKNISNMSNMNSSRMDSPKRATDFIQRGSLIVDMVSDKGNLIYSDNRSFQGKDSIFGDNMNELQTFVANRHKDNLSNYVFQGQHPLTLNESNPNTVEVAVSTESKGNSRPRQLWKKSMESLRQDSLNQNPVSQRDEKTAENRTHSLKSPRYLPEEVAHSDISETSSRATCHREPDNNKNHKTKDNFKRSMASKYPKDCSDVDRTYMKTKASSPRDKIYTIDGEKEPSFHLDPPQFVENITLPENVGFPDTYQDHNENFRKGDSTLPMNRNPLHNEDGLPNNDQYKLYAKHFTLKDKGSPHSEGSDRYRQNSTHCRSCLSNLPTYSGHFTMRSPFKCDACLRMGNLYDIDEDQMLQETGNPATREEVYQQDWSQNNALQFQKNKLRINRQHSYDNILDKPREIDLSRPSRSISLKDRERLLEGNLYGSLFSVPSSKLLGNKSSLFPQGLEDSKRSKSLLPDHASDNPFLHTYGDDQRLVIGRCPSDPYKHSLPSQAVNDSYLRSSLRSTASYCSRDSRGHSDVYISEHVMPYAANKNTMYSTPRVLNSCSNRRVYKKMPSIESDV

Molecular target: glutamate site of NMDA receptors (Rattus norvegicus, UniProt Q00959)
Experiment: NMDA receptor radioligand binding assay

Nc1nc2ccc(OC(F)(F)F)cc2s1 [Riluzole, 2-amino-6-[trifluoromethoxy]benzothiazole, reference compound]
effect in NMDA receptor binding assay at 100 μM: no effect
